Data on one compound can be found in patent publication EP4725507A1, “POLYPEPTIDE CONJUGATE, PHARMACEUTICAL COMPOSITION CONTAINING POLYPEPTIDE CONJUGATE AND USE THEREOF” (Nanjing Anji Biotechnology Co., Ltd., priority 2023, dated 2025).

pIC50: −log10 of the molar value.

The assay deals with A549 (non-small cell lung cancer cells). As to the kind of experiment: Tumor cell proliferation inhibition (CCK8). To be noted: Homo sapiens, 72 h. The class given is cell-based. The source says: Human highly metastatic hepatocellular carcinoma cells HCCLM3, human highly metastatic gastric cancer cells MKN45, human gastric cancer cells BGC-823 and MGC-803, non-small cell lung cancer cells A549, human pancreatic cancer cells ASPC-1, human colon cancer cells LoVo, human ovarian cancer cells A2780, human cervical cancer cells SiHa, human malignant melanoma cells SK-mel-2 and M14, human osteosarcoma cells Saos-2, human bladder transitional cell carcinoma cells T24, human brain glioblastoma cells U87-MG, human lymphoma cells Raji, and human epidermal cancer cells A431 were selected for the experiment. Among them, HCCLM3 cells, MKN45 cells, BGC-823 cells, MGC-803 cells, A431 cells and A549 cells were provided by Nanjing Anji Biotechnology Co., Ltd., and the other cells were provided by Nanjing Ouji Pharmaceutical Technology Service Co., Ltd.
The aforementioned tumor cells were preserved in a medium containing 10% fetal bovine serum and 1% penicillin-streptomycin, and incubated at 37°C with 5% CO2 and 95% humidity. […]
Tumor cells in the logarithmic growth phase were taken for the experiment. The cells were digested, counted, and prepared into a cell suspension with a concentration of 1×10^5 cells/mL, which was then inoculated into a 96-well plate (100 µL per well). […] After incubation, the absorbance was measured at 450 nm, and the tumor cell proliferation inhibition rate was calculated. […]

In turn, `CC(=O)O[C@H]1C(=O)[C@@]2(C)[C@H]([C@H](OC(=O)c3ccccc3)[C@]3(O)C[C@H](OC(=O)[C@H](O)[C@@H](NC(=O)c4ccccc4)c4ccccc4)C(C)=C1C3(C)C)[C@]1(OC(C)=O)CO[C@@H]1C[C@@H]2O` [PTX, paclitaxel] showed a pIC50 of 6.27.

One may read the pIC50 as the IC50 on a negative log10 scale, so that one unit is a factor of ten. A lower pIC50 goes with a high IC50.
